B1: p52 (protein, UniProt Q00653 1-454)
chain: MESCYNPGLDGIIEYDDFKLNSSIVEPKEPAPETADGPYLVIVEQPKQRGFRFRYGCEGPSHGGLPGASSEKGRKTYPTVKICNYEGPAKIEVDLVTHSDPPRAHAHSLVGKQCSELGICAVSVGPKDMTAQFNNLGVLHVTKKNMMGTMIQKLQRQRLRSRPQGLTEAEQRELEQEAKELKKVMDLSIVRLRFSAFLRASDGSFSLPLKPVISQPIHDSKSPGASNLKISRMDKTAGSVRGGDEVYLLCDKVQKDDIEVRFYEDDENGWQAFGDFSPTDVHKQYAIVFRTPPYHKMKIERPVTVFLQLKRKRGGDVSDSKQFTYYPLVEDKEEVQRKRRKALPTFSQPFGGGSHMGGGSGGAAGGYGGAGGGGSLGFFPSSLAYSPYQSGAGPMGCYPGGGGGAQMAATVPSRDSGEEAAEPSAPSRTPQCEPQAPEMLQRAREYNARLFGLA

Protein sequences, listed by entry. Tags and fused reporters are not part of them.
UniProt P0C746: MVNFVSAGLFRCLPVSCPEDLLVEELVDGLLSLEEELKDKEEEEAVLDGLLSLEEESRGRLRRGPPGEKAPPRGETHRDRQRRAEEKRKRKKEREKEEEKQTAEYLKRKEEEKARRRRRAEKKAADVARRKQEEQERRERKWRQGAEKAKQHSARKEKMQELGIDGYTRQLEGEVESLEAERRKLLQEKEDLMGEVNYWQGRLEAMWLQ
UniProt Q04206: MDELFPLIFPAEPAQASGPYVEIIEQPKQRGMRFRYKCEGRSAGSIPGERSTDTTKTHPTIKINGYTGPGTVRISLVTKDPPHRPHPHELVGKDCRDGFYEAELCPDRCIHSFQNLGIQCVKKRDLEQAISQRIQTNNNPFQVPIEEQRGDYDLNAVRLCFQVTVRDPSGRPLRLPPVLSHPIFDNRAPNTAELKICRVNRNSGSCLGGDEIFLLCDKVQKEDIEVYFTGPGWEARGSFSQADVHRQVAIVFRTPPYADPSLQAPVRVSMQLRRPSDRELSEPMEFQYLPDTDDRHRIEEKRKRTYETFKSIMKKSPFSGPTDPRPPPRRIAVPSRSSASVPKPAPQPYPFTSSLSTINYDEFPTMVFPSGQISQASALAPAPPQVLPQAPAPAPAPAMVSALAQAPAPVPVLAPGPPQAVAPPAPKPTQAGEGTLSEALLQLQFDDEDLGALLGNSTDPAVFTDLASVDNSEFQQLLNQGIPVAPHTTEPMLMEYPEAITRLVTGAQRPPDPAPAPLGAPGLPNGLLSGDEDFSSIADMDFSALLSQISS

No constants are given. Whether binding was seen depends on the method and setting. In cells and extracts the contact can be indirect. Some entries that bind do so weakly or less than the wild type.

The assay addresses Flag-HBZ (HTLV-1 bZIP factor) (HTLV-1) (UniProt P0C746). The assay can be described thus: co-IP; HEK293T cells transfected with 1 ug of each expression vector, harvested after 24 h; lysed in 10 mM Tris-HCl pH 7.5, 5 mM EDTA, 150 mM NaCl, 1% Triton X-100; Flag-tagged protein precipitated with anti-Flag antibody overnight at 4°C on Dynabeads Protein G or A; partner detected by western ….
Regarding Tax-1 (from UniProt P03409 1-353), the binding result is reported as “no binding”. In the case of p65/RelA (from UniProt Q04206 1-551), the binding entry is on record as “binds”.

Take B1: the binding entry is reported as “binds”.

The record behind these values is paper PMC6581700.
